These results are taken from publication PMC8597092.

The chains behind the UniProt entries cited, without tags or fusion partners.
UniProt Q05397: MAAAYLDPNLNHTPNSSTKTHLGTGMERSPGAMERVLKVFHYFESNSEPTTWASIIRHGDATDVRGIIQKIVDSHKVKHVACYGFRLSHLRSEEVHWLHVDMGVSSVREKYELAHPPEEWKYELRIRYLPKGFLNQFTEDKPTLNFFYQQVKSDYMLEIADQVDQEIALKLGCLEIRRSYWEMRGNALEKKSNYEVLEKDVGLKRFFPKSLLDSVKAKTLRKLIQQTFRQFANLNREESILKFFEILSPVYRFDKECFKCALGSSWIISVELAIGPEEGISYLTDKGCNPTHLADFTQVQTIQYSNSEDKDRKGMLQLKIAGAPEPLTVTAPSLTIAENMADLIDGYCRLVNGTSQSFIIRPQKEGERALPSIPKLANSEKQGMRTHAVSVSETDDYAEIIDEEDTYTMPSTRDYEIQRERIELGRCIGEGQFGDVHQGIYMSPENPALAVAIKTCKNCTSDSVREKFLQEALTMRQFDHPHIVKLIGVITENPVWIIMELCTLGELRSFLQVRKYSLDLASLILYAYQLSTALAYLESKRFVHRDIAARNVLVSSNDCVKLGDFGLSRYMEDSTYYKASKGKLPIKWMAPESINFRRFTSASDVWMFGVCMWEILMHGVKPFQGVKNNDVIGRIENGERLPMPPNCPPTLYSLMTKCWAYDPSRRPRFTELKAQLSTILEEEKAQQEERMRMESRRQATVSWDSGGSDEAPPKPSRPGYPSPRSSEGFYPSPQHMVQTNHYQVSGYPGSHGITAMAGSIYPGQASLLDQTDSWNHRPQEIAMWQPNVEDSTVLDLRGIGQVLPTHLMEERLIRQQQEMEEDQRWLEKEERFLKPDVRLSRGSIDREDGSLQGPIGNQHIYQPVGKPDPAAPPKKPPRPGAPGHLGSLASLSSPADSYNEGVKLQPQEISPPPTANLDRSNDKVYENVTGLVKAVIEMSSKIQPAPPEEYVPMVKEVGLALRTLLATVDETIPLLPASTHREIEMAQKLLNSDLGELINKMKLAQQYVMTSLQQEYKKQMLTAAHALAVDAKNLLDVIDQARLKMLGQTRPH
UniProt P35222: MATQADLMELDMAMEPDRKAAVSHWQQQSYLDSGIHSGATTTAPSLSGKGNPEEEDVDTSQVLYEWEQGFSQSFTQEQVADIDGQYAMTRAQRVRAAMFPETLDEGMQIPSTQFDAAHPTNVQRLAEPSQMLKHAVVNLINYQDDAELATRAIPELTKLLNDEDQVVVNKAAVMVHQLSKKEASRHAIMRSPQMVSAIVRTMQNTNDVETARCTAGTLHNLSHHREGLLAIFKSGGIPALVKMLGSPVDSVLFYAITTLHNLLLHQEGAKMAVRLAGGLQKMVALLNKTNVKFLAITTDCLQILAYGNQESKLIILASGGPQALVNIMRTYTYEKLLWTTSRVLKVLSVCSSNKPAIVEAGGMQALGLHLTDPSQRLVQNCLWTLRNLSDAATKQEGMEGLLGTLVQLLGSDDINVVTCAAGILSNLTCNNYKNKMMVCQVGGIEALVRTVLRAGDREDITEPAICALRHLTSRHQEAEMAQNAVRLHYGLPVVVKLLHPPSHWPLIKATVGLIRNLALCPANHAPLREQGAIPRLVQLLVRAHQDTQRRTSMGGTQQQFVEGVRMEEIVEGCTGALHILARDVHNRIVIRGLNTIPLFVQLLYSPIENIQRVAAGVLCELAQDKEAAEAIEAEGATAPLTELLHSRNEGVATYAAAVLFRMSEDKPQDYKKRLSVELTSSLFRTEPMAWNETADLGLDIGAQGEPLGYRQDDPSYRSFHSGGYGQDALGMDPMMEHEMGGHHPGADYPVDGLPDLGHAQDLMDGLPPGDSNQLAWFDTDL

In the assay the target is focal adhesion kinase (FAK) (human (endogenous in HepG2 and Huh7)) (UniProt Q05397). Briefly: affinity purification with mass spectrometry; nuclear extracts of HepG2 and Huh7 cells immunoprecipitated with an antibody against FAK on protein A/G PLUS-Agarose beads; SDS-PAGE, in-gel digestion, nLC-ESI-MS/MS.

These are yes or no findings as the source states them, for the method shown. Binding seen in cells or lysates may run through a third protein. A yes stands for co-enrichment or nearness to the bait. Other partners may have been found.

As to β-catenin (from UniProt P35222 1-781), the binding entry is “binds”.
